Reference: article doi:10.1101/2024.08.19.608690
Results are given in words; binding and its absence hold for the method and conditions named. In cells and extracts the contact can be indirect. Sequences can lack the tags named with a protein.

Molecular target: T1, GST-SH2-SHC1 (UniProt P29353)
T1 sequence: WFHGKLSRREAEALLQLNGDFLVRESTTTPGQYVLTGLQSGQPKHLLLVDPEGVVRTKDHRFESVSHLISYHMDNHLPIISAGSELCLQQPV
Test: pull-down

binding: no binding
Substance: N-terminus deleted IGPR-1 (human) (domain or fragment)
